Experimental data published in publication PMC3608566.
For at least one entry, the source does not settle the construct or the ends of the probe.

Sequences of proteins named here, by UniProt entry; tags and fusion partners are left off. Residues count along the entry.
UniProt P09874, 2-1014: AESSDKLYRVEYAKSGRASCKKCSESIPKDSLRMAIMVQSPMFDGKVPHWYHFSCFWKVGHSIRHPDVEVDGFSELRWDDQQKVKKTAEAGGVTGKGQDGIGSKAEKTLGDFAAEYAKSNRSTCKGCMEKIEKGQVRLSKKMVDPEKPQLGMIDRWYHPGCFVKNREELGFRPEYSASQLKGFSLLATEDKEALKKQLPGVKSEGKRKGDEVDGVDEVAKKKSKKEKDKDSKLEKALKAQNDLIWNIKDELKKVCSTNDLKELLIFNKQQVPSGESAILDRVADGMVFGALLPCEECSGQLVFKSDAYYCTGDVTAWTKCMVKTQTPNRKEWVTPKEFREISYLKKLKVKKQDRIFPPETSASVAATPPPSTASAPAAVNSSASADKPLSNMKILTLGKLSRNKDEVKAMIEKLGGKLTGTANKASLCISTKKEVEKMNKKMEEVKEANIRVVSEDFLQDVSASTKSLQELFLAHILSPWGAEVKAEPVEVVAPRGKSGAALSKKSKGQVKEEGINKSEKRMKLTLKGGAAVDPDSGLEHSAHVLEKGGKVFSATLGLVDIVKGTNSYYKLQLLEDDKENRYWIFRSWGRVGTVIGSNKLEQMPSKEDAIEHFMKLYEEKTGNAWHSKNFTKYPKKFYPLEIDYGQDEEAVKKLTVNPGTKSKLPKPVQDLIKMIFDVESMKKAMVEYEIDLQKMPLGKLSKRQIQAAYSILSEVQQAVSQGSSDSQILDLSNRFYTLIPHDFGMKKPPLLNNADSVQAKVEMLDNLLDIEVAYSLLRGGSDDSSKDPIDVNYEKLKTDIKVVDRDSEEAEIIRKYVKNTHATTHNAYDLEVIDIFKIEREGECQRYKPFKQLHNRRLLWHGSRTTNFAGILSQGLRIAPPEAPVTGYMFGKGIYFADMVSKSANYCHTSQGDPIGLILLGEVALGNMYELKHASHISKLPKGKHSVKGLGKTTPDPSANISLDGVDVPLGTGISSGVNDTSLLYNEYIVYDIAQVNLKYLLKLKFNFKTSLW

Molecular target: recombinant PARP-1 (non-automodified) (UniProt P09874)
Assay: EMSA
Conditions: 100 ng PARP-1, 100 ng DNA, 1 ug poly(dIdC), 5' biotin on both ends (streptavidin-alkaline phosphatase conjugated), 50 mM Tris-HCl pH 7.5, 250 mM NaCl, 6.25 mM MgCl2, 2.5 mM EDTA, 2.5 mM DTT, 10% glycerol, 37 C 30 min, 1% agarose gel in 1x TBE, commercial protein, label: biotin, probe letters rebuilt from the primers and the genome

ACAGAGCTGCGAGCCTTGCCCGGGACCGGGCGCAGATTACACTCACCGTCACTGATGCAGAGCGCGGCCAGCACCAGGGCCAGCACGGCGACGACCTTGGCGTCCATGGCGTGGGCGGGAGGGCGCGCCGGAGGCTGCAGAGCTGGGCAGCAAGAGGACACCGAGGTGGACGGAGAGTGAAAGTGCGGCAGCTAGAGGCGCGCGCTGGGCGCTTTAGAGCCGAAAACCAGGCGGGGCGGGGCTCGTCAAGGGGCGTGTCTGAAGTGTGGCTGGGGTCTCTGACGCGCATCCCCTGCGGAGCAGCCGCCCTTCCAGTCCCCTACCTACCCACCCCCTTCTTGGCGCCCTCGGCGTCCCCGGCTCCGCTGGGTGCCGAGGCCTTTGATCTTCCCAGTCCCCAACTTGGGCGGGCTCCTTGGACTACAAATGCTCCCATCCTGCAGATAGAGAAACTAAGGGGCTGTCGAAATCGAAAGCTGTCAAGTAAGGACCAGAGGCGAAACTGTGTTCCAGGCGCGAGGTTCTGTTGCGCCGCACCCAAAAAAGTTGCCAGAGAACCCTTTCTTTGGTGCCAGGACCTCAAACTGACCCACCTCTCTCCCAGGGTGTCTGTGCCGCAGGCGACAGCTAGGCTTAAGGGCAACGCGGAGCAACCTACAGTTAGAATAACTTGGACTCCCAGCCAAAGTCTCACTACAGTCACCCCCGGGAAGATGCATTCTAACGTAGGGCTGTGCTG (double strand) [Cxcl12 promoter 739 bp PCR fragment]
binding result: binds
